No constants are given. Whether binding was seen depends on the method and setting. For part of these data: Binding seen in cells or lysates may run through a third protein. Some binding calls cover weakened binding; strength is not graded here. For part of these data: Sequences can lack the tags named with a protein.

By UniProt entry, the sequences of proteins in these tests, tags left out. Chains listed by the source or under a name are the forms on record and can include a tag or linker. Residues count along the entry.
MAP1B (2167–2468), library clone in pGADT7 (P46821, residues 2167-2468): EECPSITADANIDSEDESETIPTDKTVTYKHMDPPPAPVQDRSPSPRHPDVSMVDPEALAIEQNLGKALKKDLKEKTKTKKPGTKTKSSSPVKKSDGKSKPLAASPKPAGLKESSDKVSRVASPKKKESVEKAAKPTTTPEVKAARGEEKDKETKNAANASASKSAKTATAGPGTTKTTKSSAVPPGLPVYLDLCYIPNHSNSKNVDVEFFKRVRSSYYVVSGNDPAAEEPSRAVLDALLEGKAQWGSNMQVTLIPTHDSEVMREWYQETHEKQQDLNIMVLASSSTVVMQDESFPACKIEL
GFP-tagged LC1 (P46821, residues 2207-2468): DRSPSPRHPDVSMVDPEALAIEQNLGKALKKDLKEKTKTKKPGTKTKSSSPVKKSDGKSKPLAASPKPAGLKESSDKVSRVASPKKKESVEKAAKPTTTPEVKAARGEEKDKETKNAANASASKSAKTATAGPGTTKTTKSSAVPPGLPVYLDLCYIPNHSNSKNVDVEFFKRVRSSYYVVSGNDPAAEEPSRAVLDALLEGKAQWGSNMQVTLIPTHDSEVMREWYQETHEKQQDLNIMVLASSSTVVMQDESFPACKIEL

Among the data in publication PMC5736545 are binding values, retold here.

One experiment has as its target GFP-tagged PiT2 (human) (UniProt Q08357). The experiment in a line: co-IP; HeLa cells co-transfected with PiT2 and LC1 vectors; lysates immunoprecipitated with anti-GFP antibody or control IgG.
The target of another experiment is GFP-tagged LC1 (human) (UniProt P46821). Described as above.
Experiment [1] has as its target T1, PiT2 loop7 domain (residues 235–482) fused to the Gal4 DNA-binding domain (human) (UniProt Q08357).
T1 sequence: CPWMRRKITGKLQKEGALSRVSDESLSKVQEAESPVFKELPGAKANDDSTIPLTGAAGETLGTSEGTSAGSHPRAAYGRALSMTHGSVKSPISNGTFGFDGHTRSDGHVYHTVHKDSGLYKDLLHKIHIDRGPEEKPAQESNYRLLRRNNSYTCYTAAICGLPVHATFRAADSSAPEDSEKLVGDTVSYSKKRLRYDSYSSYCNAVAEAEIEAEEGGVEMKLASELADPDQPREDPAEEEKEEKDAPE
Nature of the experiment: two-hybrid; library screen by yeast mating: bait pGBKT7-loop7 in Y187, prey human fetal brain cDNA library; selection on SD-Leu/Trp/His/Ade, X-Gal.

“FLAG-LC1 fusion protein (from UniProt P46821 2207-2468) (domain or fragment)”: the binding entry with GFP-tagged PiT2 (human) is listed as “binds”. “Flag-tagged PiT2 (from UniProt Q08357 1-652)”: in the experiment with GFP-tagged LC1 (human), the binding entry was “binds”. As to “MAP1B (2167–2468), library clone in pGADT7 (from UniProt P46821 2167-2468) (domain or fragment)”, the binding result in experiment [1] was “binds”.
